Measurements published in PubChem BioAssay AID588 (National Center for Advancing Translational Sciences (NCATS), 2007).
The campaign covered roughly 59,000 compounds. About 25 (0.04%) were called active. Inconclusive results, whose numbers are uncertain, are shown with a selection of clear calls. No rule for the calls is given here.

experiment: qHTS Assay for Spectroscopic Profiling in Resorufin Spectral Region; details: Compound fluorescence, resorufin region 547/598 nm, buffer; stronger effect = higher value
Excerpt: NIH Molecular Libraries Screening Centers Network [MLSCN] NIH Chemical Genomics Center [NCGC] […] Occasionally, the artifactual effect may originate from the compound#s own spectral or other biophysical properties which generally tend to track its assay concentration. Pre-screening/profiling the library with respect to the compounds# spectral properties should help one exclude false positives early on. While the most informative fluorescent profiling data set is obtained by performing a full excitation and emission scan of each well by using a monochromator-based plate reader, such an approach is practical only on a very limited scale as scanning each well requires long time. An alternative approach, applied here, is to perform plate reader scans using selected excitation and emission wavelength pairs to generate a multidimensional relational database that correlates compound concentration and the respective relative fluorescence intensity at a given wavelength set. A standard curve of resorufin present on each plate as six-point concentration series, was used to compute a normalized fluorescence response, termed dye-equivalent concentration, for each compound at each concentration.
NCGC Assay Protocol Summary: Buffer: 100 mM Tris buffer, pH 8.0 Dye standard plate: The wells in columns 1 through 4 of a Kalypsys polypropylene 1536-well compound plate were filled with standard solutions of fluorophore corresponding to the spectral region of interest. Solutions of resorufin were placed in the following wells: M1, N1: 3 mM, M2, N2: 300 uM, M3, N3: 30 uM, M4, N4: zero (DMSO), O1, P1: 3 uM, O2, P2: […], O3, P3: 300 nM, O4, P4: zero (DMSO). Assay Steps: Six uL of buffer were dispensed to 1536-well Greiner black plates. Compounds and dye standards (23 nL) were transferred via Kalypsys PinTool. The plates were incubated for 15 min at room temperature, and then read on ViewLux (Perkin-Elmer) High-throughput CCD imager using 547 nm and 598 nm excitation and emission filter set. Keywords: NIH Roadmap, MLSCN, MLI, MLSMR, qHTS, NCGC, Resorufin, Fluorescent Profiling.

SMILES | max dye-equivalent concentration
Cc1ccc(-c2nnn(CC(=O)Nc3ccccc3-c3ccccc3)n2)c(-n2cnnn2)c1 | inconclusive: 1.3 nM
Cc1cc2cc(CNC(=O)c3cc4ccccc4o3)ccc2n1C | inconclusive: 1.5 nM
Nc1n[nH]c2ccccc12 | active: 11 nM
CC1CCN(c2nc3ccccc3nc2C(C#N)C(=O)NC2CCCCC2)CC1 (configuration not stated) | inactive
CC[N+](C)(CC)CCC[n+]1c(-c2ccccc2)c2cc(N)ccc2c2ccc(N)cc21 | inconclusive: 1.6 nM
CC(C)Cc1[nH]c(=O)c(C#N)c2c1CCCC2 | inactive
CC1N(C)c2cc(NC(=O)c3ccco3)ccc2C1(C)C (configuration not stated) | inconclusive: 1.7 nM
CCn1cc(C(=O)NCc2ccccn2)c(=O)c2cc(S(=O)(=O)N3CCCCC3)ccc21 | inconclusive: 3.8 nM
CCn1c(CSc2nccn2C)nc2cc(C(=O)O)ccc21 | active: 11 nM
COc1ccc2cc(C(c3nnnn3CCc3ccccc3)N3CCC(O)CC3)c(=O)[nH]c2c1 (configuration not stated) | active: 13 nM
CC1(C)[C@@H]2CC[C@]1(CC(=O)O)[C@H](Cl)C2 | inactive
CC(=O)S[C@H]1CC2=CC(=O)CC[C@@]2(C)[C@H]2CC[C@@]3(C)[C@H](CC[C@]34CCC(=O)O4)[C@@H]12 | inconclusive: 5.4 nM
CC1(C)c2ccccc2N2CC(=O)N(CC(N)=O)C21C (configuration not stated) | inconclusive: 1.7 nM
CCOC(=O)CN=C1CC(C)(C)CC2=C1Sc1ncnc(N(C)C)c1N2 | inconclusive: 1.3 nM
CC(C)c1ccc(/C(C(=O)O)=C(\O)C(=O)O)cc1 | inactive
N=C1[C@@H](O)[C@]2(I)c3ccccc3N3C(=N)[C@H](O)[C@@H]4c5ccccc5N1[C@@H]4[C@@H]32 | inconclusive: 2.6 nM
Cc1ccc(C2=C(Cl)C(=O)C(c3ccc(C)cc3)=C(Cl)C2=O)cc1 | inactive
O=C1c2ccccc2-c2onc3ccc(NCCCn4ccnc4)c1c23 | active: 650 nM
O=C(CSc1nc2ccccc2s1)c1sc2sc3ccccc3[n+]2c1O | inconclusive: 3 nM
O=C1c2ccccc2C(=O)c2c(NC3CCCCC3)ccc(Nc3ccc(S(=O)(=O)O)cc3)c21 | inconclusive: 7.9 nM
CCCCn1c2nc3ccccc3nc2c2c(=N)oc(C)nc21 | inconclusive: 1.7 nM
CC1Cc2ccccc2N1S(=O)(=O)c1cccs1 (configuration not stated) | inconclusive: 3 nM

SMILES | max dye-equivalent concentration
O=C1OC2(c3ccc(O)cc3Oc3cc(O)ccc32)c2c1c(-c1ccccc1)c(-c1ccccc1)c(-c1ccccc1)c2-c1ccccc1 | inconclusive: 2 nM
CCOC(=O)N1CCN(Cc2nc3c(c(=O)n(C)c(=O)n3C)n2CCCc2ccccc2)CC1 | inconclusive: 2.1 nM
Cc1nnc2sc(-c3ccc(NC(=O)c4ccc(-c5ccc(Cl)cc5Cl)o4)cc3)nn12 | inconclusive: 1.6 nM
O=C1CSC(=S)N1/N=C\c1ccc(Cl)c([N+](=O)[O-])c1 | inactive
Cc1cc(=O)[nH]c(SCCOc2ccc(OC(C)C)cc2)n1 | inconclusive: 1.1 nM
COc1ccccc1N1CCN(C(=O)c2c(-c3c(Cl)cccc3Cl)noc2C)CC1 | inactive
Nc1cc2c(nc3c4ccccc4c(N)cc3[n+]2-c2cccc3ccccc23)c2ccccc12 (tested in a mixture with another compound) | inconclusive: 1.5 nM
N#CC1=C(N)Oc2n[nH]c(-c3cccs3)c2C1c1ccco1 (configuration not stated) | inconclusive: 4.2 nM
Cn1c(=O)c2[nH]cnc2n(C)c1=O | inconclusive: 1.5 nM
Cc1onc(-c2ccccc2Cl)c1C(=O)Nc1cc(=O)n(C)c(=O)n1C | inactive
CC(=O)N1CCN(C2=Nc3cccc4cccc2c34)CC1 | inactive
COc1cccc2c1C(=O)c1c(O)c3c(c(O)c1C2=O)C[C@](O)(C(=O)CO)C[C@H]3O[C@@H]1C[C@H](N)[C@H](O)[C@H](C)O1 | active: 72 nM
CCCCC(CC)Cn1c2nc3ccccc3nc2c2c(=N)oc(C)nc21 (configuration not stated) | inconclusive: 1.9 nM
CC(=O)[C@@H]1[C@@H]2C(=O)N(c3ccc(F)c(Cl)c3)C(=O)[C@@H]2C2c3ccccc3C=CN21 (some centres not stated) | inconclusive: 2 nM
Cc1ccc2c(c1)c(C)c(C)n2CC(O)CN1CCOCC1 (configuration not stated) | inconclusive: 8.9 nM
CCOC(=O)c1cnc(-n2nc(C)cc2C)nc1NC | inactive
Nc1ncnc2c1ncn2[C@@H]1O[C@@H](C(=O)NC2CC2)[C@H](O)[C@@H]1O | inactive
N#C[C@@H]1[C@@H]2C(=O)N(c3ccc4c(c3)OCCO4)C(=O)[C@@H]2C2c3ccccc3C=CN21 (some centres not stated) | inconclusive: 3.9 nM
CCOC(=O)CNC(=O)c1ccc2c(c1)OCCO2 | inactive
Cn1c(CN2CCOCC2)c(C#N)c2ccccc21 | inactive
Cn1cc(C2=C(c3ccc(Cl)cc3Cl)C(=O)NC2=O)c2ccccc21 | inconclusive: 4.5 nM
CCCCCCCCCCCCCCCCCC(=O)O[C@H](CC(=O)O)C[N+](C)(C)C | inactive

Structures listed so far containing sulfur:
SMILES | max dye-equivalent concentration
CCn1cc(C(=O)NCc2ccccn2)c(=O)c2cc(S(=O)(=O)N3CCCCC3)ccc21 | inconclusive: 3.8 nM
CCn1c(CSc2nccn2C)nc2cc(C(=O)O)ccc21 | active: 11 nM
CC(=O)S[C@H]1CC2=CC(=O)CC[C@@]2(C)[C@H]2CC[C@@]3(C)[C@H](CC[C@]34CCC(=O)O4)[C@@H]12 | inconclusive: 5.4 nM
CCOC(=O)CN=C1CC(C)(C)CC2=C1Sc1ncnc(N(C)C)c1N2 | inconclusive: 1.3 nM
O=C(CSc1nc2ccccc2s1)c1sc2sc3ccccc3[n+]2c1O | inconclusive: 3 nM
O=C1c2ccccc2C(=O)c2c(NC3CCCCC3)ccc(Nc3ccc(S(=O)(=O)O)cc3)c21 | inconclusive: 7.9 nM
CC1Cc2ccccc2N1S(=O)(=O)c1cccs1 (configuration not stated) | inconclusive: 3 nM
Cc1nnc2sc(-c3ccc(NC(=O)c4ccc(-c5ccc(Cl)cc5Cl)o4)cc3)nn12 | inconclusive: 1.6 nM
O=C1CSC(=S)N1/N=C\c1ccc(Cl)c([N+](=O)[O-])c1 | inactive
Cc1cc(=O)[nH]c(SCCOc2ccc(OC(C)C)cc2)n1 | inconclusive: 1.1 nM
N#CC1=C(N)Oc2n[nH]c(-c3cccs3)c2C1c1ccco1 (configuration not stated) | inconclusive: 4.2 nM

Continuation.

SMILES | max dye-equivalent concentration
O=S(=O)(c1cnc[nH]1)N1CCc2ccccc21 | inconclusive: 3.7 nM
CN(C)C=Nc1c(Br)cc(Br)c2nonc12 | inconclusive: 1.4 nM
O=C(O)c1ccccc1C1=Nc2ccc(O)cc2Oc2cc(O)ccc21 | inconclusive: 3.9 nM
O=[n+]1c2c(n([O-])c3cc(F)c(N4CCCC4)cc31)CCC2 | inconclusive: 7.1 nM
CCOc1ccc2nc(NS(=O)(=O)c3ccc4c(c3)n(C)c(=O)n4C)sc2c1 | inactive
O=C(CCN1CCOCC1)Nc1ccc(F)cc1F | inactive
O=C1c2ccccc2-c2onc3ccc(NCc4ccco4)c1c23 | active: 17 nM
CCn1c(=O)c(=O)[nH]c2cc(C(=O)NC3CCCc4ccccc43)ccc21 (configuration not stated) | inconclusive: 2 nM
CCNc1c2c3c(cccc3n(C)c1=O)C(=O)c1ccccc1-2 | inconclusive: 8.8 nM
Cc1cc2cc(CN3C(=O)c4ccccc4C3=O)ccc2n1C | inconclusive: 1.2 nM
CN(C)C1NC(=O)c2cc(-c3ccccc3)sc2N1 (configuration not stated) | inactive
Cc1cc2nc3c(=O)[nH]c(=O)nc-3n(CC(O)C(O)C(O)CO)c2cc1C (configuration not stated) | inconclusive: 1.8 nM
CC(C)c1[nH]nc2c1C(c1cccc(OC(=O)N3CCOCC3)c1)C(C#N)=C(N)O2 (configuration not stated) | inconclusive: 1.1 nM
CC(C)C[C@H](NC(=O)[C@@H](O)[C@@H](N)Cc1ccccc1)C(=O)O | inactive
O=C(O)c1c(Br)c(Br)c(Br)c(Br)c1C1c2ccc(O)cc2Oc2cc(O)ccc21 | inconclusive: 7.4 nM
O=C(c1ccc(Cl)cc1)C1C2C(=O)N(c3ccccc3)C(=O)C2C2CCCN21 (configuration not stated) | inactive
Cc1cc2cc(CNC(=O)c3ccc4c(c3)OCO4)ccc2n1C | inconclusive: 1.1 nM
CCOc1ccccc1-n1c(SCC(=O)NC2CCCC2)nnc1-c1ccoc1C | inactive
COc1ccc(C(=O)N2CCC3(CC2)CN(c2cccc(-c4ccccc4)c2)C3)cc1 | inactive
COc1cccc2c1C(=O)c1c(O)c3c(c(O)c1C2=O)C[C@@](O)(C(=O)CO)C[C@@H]3O[C@H]1C[C@H](N)[C@H](O)[C@H](C)O1 | active: 76 nM
COCCOC(=O)c1c(C)oc2ccc(O)c(CN3CCC(C)CC3)c12 | inconclusive: 1.1 nM
O=S(=O)(Cc1ccccc1)N1CCc2ccccc21 | active: 16 nM

SMILES | max dye-equivalent concentration
COc1ncnc2c1N=C1CC(C)(C)CC(N)=C1S2 | inconclusive: 3.6 nM
CCn1c(CSc2nnc(-c3cccnc3)n2-c2ccccc2C)nc2cc(C(=O)O)ccc21 | active: 220 nM
CC[C@@]12CCCN3CCc4c(n(c5ccccc45)C(=O)C1)[C@H]32 | inactive
CCCn1c(=C(C#N)C#N)s/c(=C2\C=Cc3ccccc3N2CC)c1=O | inconclusive: 5.3 nM
COc1[nH]c(/N=C/c2ccccc2)c(C#N)c1C#N | inconclusive: 4.6 nM
CC1=c2c(oc3cc(O)c(Nc4c(C)cc(O)cc4O)c(C)c23)=CC(=O)C1=Nc1c(C)cc(O)cc1O | active: 74 nM
CN1/C(=C\C(=O)COC(=O)Cn2nnc(-c3ccccc3)n2)C(C)(C)c2ccccc21 | inconclusive: 5 nM
CN1CCc2c(sc3c2C(=O)NC(c2ccccn2)N3)C1 (configuration not stated) | inconclusive: 1.7 nM
CCN1C(=O)/C(=C2\C=Cc3ccccc3N2CC)OC1=S | active: 22 nM
CCNc1ncc2nc(CCc3ccccc3)c(=O)n(Cc3ccc(F)cc3)c2n1 | inactive
O=C(O)CN(CCN(CC(=O)O)CC(=O)O)CC(=O)O.[Mn] | inactive
CN(C)CCCNc1cc(O)c2c(c1O)C(=O)c1ccccc1C2=O | active: 13 nM
COc1cccc2c1C(=O)c1c(O)c3c(c(O)c1C2=O)C[C@@](O)(C(C)=O)C[C@@H]3O[C@H]1C[C@H](N)[C@H](O)[C@H](C)O1 | active: 59 nM
Cc1cc2cc(CNC(=O)c3cccs3)ccc2n1C | inconclusive: 1.1 nM
O=S(=O)(c1cccc(-c2nnc(SCc3nc4ccccc4s3)o2)c1)N1CCOCC1 | inconclusive: 1.4 nM
CCOc1cccc2cc(C(=O)N3CCc4ccccc43)c(=O)oc12 | inconclusive: 8 nM
Cc1ccccc1CS(=O)(=O)Cc1ccc(C(=O)NCc2ccccn2)o1 | inconclusive: 1.2 nM
CN1[C@@H]2CC(OC(=O)[C@@H](CO)c3ccccc3)C[C@@H]1[C@H]1O[C@H]12 (some centres not stated) | inactive
O=C(Nc1ccc2c(c1)OCO2)C1CCCN(c2nc3ccccc3s2)C1 (configuration not stated) | inconclusive: 7.7 nM
O=C(O)CCCNc1cc(N2CCC3(CC2)OCCO3)c2noc3c2c1C(=O)c1ccccc1-3 | inconclusive: 1.7 nM

Reprinted at random: two compounds from above.
SMILES | max dye-equivalent concentration
CC[N+](C)(CC)CCC[n+]1c(-c2ccccc2)c2cc(N)ccc2c2ccc(N)cc21 | inconclusive: 1.6 nM
Cc1ccc2c(c1)c(C)c(C)n2CC(O)CN1CCOCC1 (configuration not stated) | inconclusive: 8.9 nM
